In US20240279278A1, “NMU RECEPTOR 2 AGONISTS” (Boehringer Ingelheim International GmbH, priority 2023, published 2024):
At least one structure is not confirmed: it was looked up by name or label, or the drawing left a doubt. Starred links: 1 amine or outer side, 2 acyl side, 3 side chain; linkers in the order of their positions; H or OH if unused. Non-standard residues stand in square brackets, D forms with d. Residues, ends and D or L forms follow the SMILES beside them. *: point of attachment. Pipz(1-CH2CO,4-CH2CH2NH) = O=C(CN1CCN(CCN[*:1])CC1)[*:2]; C18 diacid = O=C(O)CCCCCCCCCCCCCCCCC(=O)*; γGlu = O=C(O)[C@H](CCC(=O)[*:2])N[*:1]; NMeL = CN[C@@H](CC(C)C)C(=O)O; hLys = NCCCCC[C@H](N)C(=O)O; Nle = CCCC[C@H](N)C(=O)O; Sar = CNCC(=O)O

Amino acid sequences for entries named in this document (tags omitted). A change or cut given only in a name is not applied to a line headed by its entry.
UniProt Q9GZQ4: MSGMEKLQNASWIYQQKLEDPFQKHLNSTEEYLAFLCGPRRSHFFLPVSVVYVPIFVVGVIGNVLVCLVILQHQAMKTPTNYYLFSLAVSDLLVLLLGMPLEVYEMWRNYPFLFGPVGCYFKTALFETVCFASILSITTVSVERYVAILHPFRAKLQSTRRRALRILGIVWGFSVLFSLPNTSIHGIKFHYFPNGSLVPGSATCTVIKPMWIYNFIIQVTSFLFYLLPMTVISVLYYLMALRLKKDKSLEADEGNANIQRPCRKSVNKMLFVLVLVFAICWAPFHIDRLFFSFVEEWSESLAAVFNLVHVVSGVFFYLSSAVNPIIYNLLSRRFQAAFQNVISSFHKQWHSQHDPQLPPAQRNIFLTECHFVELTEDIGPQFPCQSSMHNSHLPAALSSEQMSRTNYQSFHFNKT

Experiments:
Type in all cases: cell-based
human NMUR2 receptor [1] = target: T1, human NMUR2 receptor (Homo sapiens, UniProt Q9GZQ4); test: IP1 Gq HTRF assay, activation of human NMUR2 in human plasma; parameters: expressed in transfected cells; host or cells: CHO-K1; details: CHO-K1 cells expressing human NMUR2, 100% human plasma; read-out: EC50 (hNMUR2) human plasma
Source text: Example 4: IP1 Gq HTRF Assay Activation of Human NMUR2 in Human Plasma Application of the Homogenous Time Resolved Fluorescence (HTRF) technology optimized for Gq coupled receptors has been described in detail in the Cisbio IP-One Gq kit manual. In brief, a FRET signal is generated between the donor label of an IP-One antibody (anti-IP1-Tb) and the acceptor label of a tagged IP-One (IP1-d2). Agonism of a Gq coupled receptor increases intracellular IP-One, which competes with labeled IP-One and leads to a reduction of the FRET signal. Frozen stocks of CHO-K1 cells stably expressing the human NMUR1 receptor or human NMUR2 receptor were thawed and 5000 cells were seeded in culture medium (HAM'S F12, 10% FCS) into each well of a 384-well assay plate. After seeding, cells were incubated for 24 h in a humidified incubator at 37° C. and 5% CO2. Next, cells were washed once with […] of wash buffer (20 mM Hepes, 1×HBSS, pH 7.4), followed by addition of […] (100% human plasma, 50 mM LiCl). […] After addition of 5 μL each of IP1-d2 and anti-IP1-Tb, samples were incubated for another 1 hour at room temperature and FRET signals (ratio 665 nm/620 nm) were measured. EC50 values were calculated by nonlinear regression using a 4-parameter sigmoidal curve fit.

human NMUR2 receptor [2] = target: T1, human NMUR2 receptor; test: IP1 Gq HTRF assay, activation of human NMUR2 in buffer; parameters: expressed in transfected cells; host or cells: CHO-K1; details: CHO-K1 cells expressing human NMUR2, stimulation buffer with 0.1% BSA; read-out: EC50 (hNMUR2) buffer
Source text: (§1) Example 3: IP1 Gq HTRF Assay Activation of Human NMUR2 or Human NMUR1 in Buffer Application of the Homogenous Time Resolved Fluorescence (HTRF) technology optimized for Gq coupled receptors has been described in detail in the Cisbio IP-One Gq kit manual. In brief, a FRET signal (FRET: fluorescence resonance energy transfer) is generated between the donor label of an IP-One antibody (anti-IP1-Tb) and the acceptor label of a tagged IP-One (IP1-d2). Agonism of a Gq coupled receptor increases intracellular IP-One, which competes with labeled IP-One and leads to a reduction of the FRET signal. Frozen stocks of CHO-K1 cells stably expressing the human NMUR1 or NMUR2 receptor were thawed and 5000 cells were seeded in culture medium (HAM'S F12, 10% FCS) into each well of a 384-well assay plate. After seeding, cells were incubated for 24 h in a humidified incubator at 37° C. and 5% CO2. Next, cells were washed once with 50 μL of wash buffer (20 mM Hepes, 1×HBSS, pH 7.4), followed by addition of either 10 μL of stimulation buffer (20 mM Hepes, 1×HBSS, 50 mM LiCl, 0.1% BSA, pH 7.4). […] After addition of 5 μL each of IP1-d2 and anti-IP1-Tb, samples were incubated for another 1 hour at room temperature and FRET signals (ratio 665 nm/620 nm) were measured. EC50 values were calculated by nonlinear regression using a 4-parameter sigmoidal curve fit.

human NMUR1 receptor = target: T2, human NMUR1 receptor (Homo sapiens, UniProt Q9HB89); test: IP1 Gq HTRF assay, activation of human NMUR1 in buffer; details: CHO-K1 cells expressing human NMUR1, stimulation buffer with 0.1% BSA; read-out: EC50 (hNMUR1) buffer
T2 construct: expressed in transfected cells; host or cells: CHO-K1
T2 sequence (Q9HB89 1-426): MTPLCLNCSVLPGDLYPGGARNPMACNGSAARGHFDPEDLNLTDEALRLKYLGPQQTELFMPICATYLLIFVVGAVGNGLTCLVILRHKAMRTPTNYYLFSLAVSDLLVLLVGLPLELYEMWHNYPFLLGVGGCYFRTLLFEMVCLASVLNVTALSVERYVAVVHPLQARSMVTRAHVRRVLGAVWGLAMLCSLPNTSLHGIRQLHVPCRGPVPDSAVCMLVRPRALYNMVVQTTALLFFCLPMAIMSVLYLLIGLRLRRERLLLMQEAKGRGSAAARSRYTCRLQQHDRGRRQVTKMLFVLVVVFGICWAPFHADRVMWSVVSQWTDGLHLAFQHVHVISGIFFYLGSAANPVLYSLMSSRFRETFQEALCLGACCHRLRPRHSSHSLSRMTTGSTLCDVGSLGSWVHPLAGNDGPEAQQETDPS
Source text: as §1

CCCC[C@H](NC(=O)[C@H](CC(C)C)N(C)C(=O)[C@H](Cc1ccccc1)NC(=O)[C@H](Cc1ccc(O)cc1)NC(=O)CN1CCN(CCNC(=O)CN(C)C(=O)CN(C)C(=O)CN(C)C(=O)CN(C)C(=O)CN(C)C(=O)CN(C)C(=O)CN(C)C(=O)CN(C)C(=O)CN(C)C(=O)CC[C@H](NC(=O)CC[C@H](NC(=O)CC[C@H](NC(=O)CCCCCCCCCCCCCCCCC(=O)O)C(=O)O)C(=O)O)C(=O)O)CC1)C(=O)N[C@@H](CCCCCN)C(=O)N1CCC[C@H]1C(=O)N[C@@H](CCCNC(=N)N)C(=O)NCC(N)=O [Compound 74, C18DA-gGlu3-Sar9-AEPipAc-Tyr-Phe-NMeLeu-Nle-hLys-Pro-Arg-Gly-NH2] ({C18 diacid-γGlu-γGlu-γGlu}-[Sar][Sar][Sar][Sar][Sar][Sar][Sar][Sar][Sar][Pipz(1-CH2CO,4-CH2CH2NH)]YF[NMeL][Nle][hLys]PRG-NH2)
EC50 (human NMUR2 receptor [1]): 72.8 nM
EC50 (human NMUR2 receptor [2]): 11 nM
EC50 (human NMUR1 receptor): 1400 nM
